# From the supplement of paper PMC12542422
# Where a name gives a salt, the structure may show the parent alone. ± gives the standard deviation of the averaged measurements. The list shows a part of the results. Values are raw readings; no control value is given beside them.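 Ribosome-assembly readouts in HeLa cells were imaged via ENP1 staining, with or without export block, or inducible tagged ribosomal protein reporters. Machine learning classified per-cell signal location versus solvent (DMSO) controls. Hits surpassed the DMSO false-positive mean by five standard deviations and were visually confirmed; three biological replicates.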
# Test system: HeLa RPL29-GFP reporter
# Test: fraction of reporter-positive cells with nuclear (nucleolar or nucleolar/nucleoplasmic) RPL29-GFP (MainHitrate); higher = more cells with nucleolar/nuclear readout signal (for ENP1 -LMB: less RNAPI inhibition; for +LMB ENP1 and RP reporters: stronger nuclear/nucleolar retention, i.e. ribosome biogenesis defect)
# Conditions: concentration: 1 µM; treatment time: 6 h
row,SMILES,fraction of reporter-positive cells with nuclear
1,CN1CCc2cccc3c2[C@H]1Cc1ccc(O)c(O)c1-3 [R-(-)-Apomorphine HCl Hemihydrate],0.29 ± 0.19
2,c1ccc(C2CN3CCSC3=N2)cc1 (stereo unspecified) [Tetramisole HCl],0.219 ± 0.059
3,CCC[C@@H]1C[C@@H](C(=O)N[C@@H]([C@H]2O[C@H](SC)[C@H](O)[C@@H](O)[C@H]2O)[C@H](C)Cl)N(C)C1 [Clindamycin],0.244 ± 0.062
4,N[C@@H](Cc1cc(I)c(Oc2cc(I)c(O)c(I)c2)c(I)c1)C(=O)O [L-Thyroxine],0.193 ± 0.028
5,COc1c2ccoc2cc2oc(=O)ccc12 [Bergapten],0.186 ± 0.076
6,O=NO [Sodium nitrite],0.202 ± 0.063
